Some entries share one result that the patent states for a list of compounds.
Tests used:
[1] = test system: Plasmopara viticola; assay: Activity against downy mildew of grapes caused by Plasmopara viticola (inoculation on the following day); assay type: in vivo; conditions: 250 ppm active compound; potted vines Müller-Thurgau; inoculated the day after spraying; untreated plants 90% infected
[2] = test system: Phytophthora infestans; assay type: in vivo; conditions: 250 ppm active compound; tomato Große Fleischtomate St. Pierre; infected the day after spraying, assessed after 6 days; untreated plants 100% infected

CCOc1ccc(CCNC(=O)C(=CC2CC2)c2ccc(C)cc2)cc1OC [Compound I-152]
infection [1]: up to 7%
infection [2]: up to 15%

CCC=C(C(=O)NCCc1ccc(OCC)c(OC)c1)c1ccc(Br)c(C)c1 [Compound I-234]
infection [1]: up to 7%
infection [2]: up to 15%

COc1ccc(CCNC(=O)C(=CC(C)(C)OC)c2ccc(OC(F)(F)F)cc2)cc1OC [Compound I-188]
infection [1]: up to 7%
infection [2]: up to 15%

CCOc1ccc(CCNC(=O)C(=CC(C)CC)c2ccc(Cl)c(Cl)c2)cc1OC (stereo not shown) [Compound I-229]
infection [1]: up to 7%
infection [2]: up to 15%

CCOc1ccc(CCNC(=O)C(=CC(C)(C)OC)c2ccc(Br)cc2)cc1OC [Compound I-208]
infection [1]: up to 7%
infection [2]: up to 15%

COc1ccc(CCNC(=O)C(=CC2CC2)c2ccc(Br)c(C)c2)cc1OC [Compound I-201]
infection [1]: up to 7%
infection [2]: up to 15%

CCOc1ccc(CCNC(=O)C(=CC(C)(C)OC)c2ccc(Cl)c(Cl)c2)cc1OC [Compound I-213]
infection [1]: up to 7%
infection [2]: up to 15%

COc1ccc(C(=CC(C)(C)OC)C(=O)NCCc2ccc(OC)c(OC)c2)cc1C [Compound I-187]
infection [1]: up to 7%
infection [2]: up to 15%

From patent publication US7186861B2 (priority 2002, dated 2007)
